Source: publication PMC10853541
These are yes or no findings as the source states them, for the method shown. In cells and extracts the contact can be indirect. Some results given as binding are weak or reduced against the parent protein; the word gives no strength.

Amino acid sequences for entries named in this document (tags omitted). A change or cut given only in a name is not applied to a line headed by its entry.
UniProt P70658: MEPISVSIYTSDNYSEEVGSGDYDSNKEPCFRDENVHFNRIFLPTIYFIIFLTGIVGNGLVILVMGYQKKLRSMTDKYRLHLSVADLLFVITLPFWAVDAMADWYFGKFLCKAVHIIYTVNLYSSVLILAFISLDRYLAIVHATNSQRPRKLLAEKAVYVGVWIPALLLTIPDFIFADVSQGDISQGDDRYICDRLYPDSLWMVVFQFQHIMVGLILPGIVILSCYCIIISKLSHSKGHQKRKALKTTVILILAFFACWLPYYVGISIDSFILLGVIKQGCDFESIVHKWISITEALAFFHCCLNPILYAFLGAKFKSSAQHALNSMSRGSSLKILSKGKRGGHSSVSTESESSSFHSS
UniProt P63158: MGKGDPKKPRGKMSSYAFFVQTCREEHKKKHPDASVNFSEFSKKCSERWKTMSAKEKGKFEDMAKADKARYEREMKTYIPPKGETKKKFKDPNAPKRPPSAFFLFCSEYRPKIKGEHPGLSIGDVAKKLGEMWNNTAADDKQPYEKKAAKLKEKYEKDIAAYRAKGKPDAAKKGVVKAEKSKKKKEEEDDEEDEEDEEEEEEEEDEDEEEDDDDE

Biological target: CXCR4 on the surface of mouse AB1 malignant mesothelioma cells (mouse (endogenous in AB1)) (UniProt P70658)
Assay: proximity ligation; endogenous HMGB1 and CXCL12 on the surface of fixed AB1 cells (anti-HMGB1 + anti-CXCL12); cells untreated, treated 1 h at 37 °C with AMD3100 or Ac-pep (10, 30, 100 nM), or Cxcr4 knockout

- binding: binds
Substance: endogenous HMGB1•CXCL12 heterocomplex on the surface of AB1 cells (from UniProt P63158 1-215; P40224 22-93)
